Data from patent US20250034211A1, “C-TERMINAL EXTENDED P53 ACTIVATOR CROSSLINKED PEPTIDOMIMETIC MACROCYCLES AGAINST MDM2/MDMX” (Merck Sharp & Dohme LLC, priority 2021, published 2025).
At least one structure is not confirmed: it was looked up by name or label, or the drawing left a doubt. Where a SMILES comes first, the peptide text is derived from it. Bridges are numbered along the chain shown (N, C = ends). [ ]: non-standard residue; d: D form. Lys(N3) = [N-]=[N+]=NCCCC[C@H](N)C(=O)O; R8 = C=CCCCCCC[C@@](C)(N)C(=O)O; Cba = N[C@@H](CC1CCC1)C(=O)O; S5 = C=CCCC[C@](C)(N)C(=O)O; βAla = NCCC(=O)O

Legend:
p53 null Ca Ski = details: 72 h, 10% serum

Compound: CC(=O)N[C@@H](CCCCN=[N+]=[N-])C(=O)NCCC(=O)N[C@@H](CC(C)C)C(=O)N[C@H](C(=O)N[C@@H](Cc1ccccc1)C(=O)N[C@]1(C)CCCCCCC=CCCC[C@@](C)(C(=O)N[C@@H](C)C(=O)N[C@@H](C)C(=O)N[C@@H](CCC(=O)O)C(=O)N[C@@H](C)C(=O)N[C@@H](C)C(=O)N[C@H](C)C(N)=O)NC(=O)[C@H](CC2CCC2)NC(=O)[C@H](CCC(N)=O)NC(=O)[C@H](C)NC(=O)[C@H](Cc2c[nH]c3ccccc23)NC(=O)[C@H](Cc2ccc(O)cc2)NC(=O)[C@H](CCC(=O)O)NC1=O)[C@@H](C)O [Macrocycle 10, Ac-K(N3)-betaAla-L-T-F-X1a-E-Y-W-A-Q-Cba-X2a-AAEAA-(D-Ala)-NH2(olefinstaple from X1ato X2a)] (Ac-[Lys(N3)][βAla]LTF[R8]EYWAQ[Cba][S5]AAEAA[dA]-NH2; staple 6-13)
- p53 null Ca Ski proliferation % Max (p53 null Ca Ski): −18%
- HCT116 proliferation % Max (HCT116; 72 h, 10% serum): 75%
- fold improvement in HTC116 cell proliferation assay (HCT116; as compared to Macrocycle 3): ~2 fold
